Record: PubChem BioAssay AID1224828 (NIAID, 2016)
Purpose: 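Knock-downs that increase or decrease LPS-induced p65 nuclear translocation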 (primary screen). System: mouse RAW264.7 G9 macrophage reporter cells (GFP-p65, Tnf promoter-mCherry). Knock-down reagent: siRNA pool against mouse genes, 100 nM. Duration: 2 days siRNA transfection, then 40 min LPS before fixation. Challenge: LPS (Salmonella minnesota R595) at 10 ng/ml. Measured: 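Microscopy ratio of nuclear to perinuclear-ring GFP-p65 signal, scaled to the plate median; gene score is the average of two replicate robust z-scores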. Reading the numbers: p65 translocation robust z-score: higher = more nuclear NF-kappaB p65 after LPS than the plate median; nuclear/cytoplasmic p65 ratio: higher = more nuclear NF-kappaB p65. Call rule: 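Active if robust z is above 3.3 (negative regulators) or below -1.56, the Tlr4 control median (positive regulators); activity score 50 or more; control wells not called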. Meaning of the calls: active = hit (p65 shift raised or lowered); inactive = no clear change.
The whole screen tested about 17,000 reagents; below is a part drawn at random. 762 of all reagents (4.5%) were called active. 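Active calls include both raised and lowered p65 entry, mostly lowered; wells with fewer than 50 cells lack a z-score.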 Raw values are not corrected between plates. Entries without a mark were called inactive. The numbers tell different reagents against one gene apart.

| target | reagent no. | p65 translocation robust z-score | nuclear/cytoplasmic p65 ratio, rep 1 | nuclear/cytoplasmic p65 ratio, rep 2 | low cell count flag |
| --- | --- | --- | --- | --- | --- |
| Prps1 | 1 | 2.24 | 1.98 | 1.71 | enough cells to score |
| Trp53rka | 1 | -0.81 | 1.51 | 1.31 | enough cells to score |
| Pus3 | 1 | 0.19 | 1.47 | 1.49 | enough cells to score |
| Lsm4 | 1 | 0.89 | 1.78 | 1.74 | enough cells to score |
| Col9a2 | 1 | 1.91 | 1.62 | 1.73 | enough cells to score |
| Gca | 1 | 0.92 | 1.74 | 1.58 | enough cells to score |
| Ephb6 | 1 | -1.26 | 1.46 | 1.25 | enough cells to score |
| Opa3 | 1 | -0.53 | 1.36 | 1.33 | enough cells to score |
| Rnf169 | 1 | 1.1 | 1.42 | 1.36 | enough cells to score |
| Mbp | 1 | 0.3 | 1.48 | 1.36 | enough cells to score |
| Ifng | 1 | -0.8 | 1.43 | 1.32 | enough cells to score |
| Nmral1 | 1 | 0.91 | 1.67 | 1.57 | enough cells to score |
| Abca14 | 1 | – | 1.43 | 1.28 | fewer than 50 cells per well; well left out of scoring |
| Slc12a1 | 1 | -0.26 | 1.52 | 1.45 | enough cells to score |
| Ppp2r3c | 1 | 1.74 | 1.16 | 1.51 | enough cells to score |
| Mknk1 | 1 | 0.5 | 1.65 | 1.53 | enough cells to score |
| Map4k1 | 1 | -1.04 | – | 1.25 | enough cells to score |
| Zfp287 | 1 | – | 1.16 | 1.17 | fewer than 50 cells per well; well left out of scoring |
| Or4c10 | 1 | – | 1.19 | 1.18 | fewer than 50 cells per well; well left out of scoring |
| Ces2c | 1 | 0.46 | 1.59 | 1.94 | enough cells to score |
| Grhl1 | 1 | – | 1.17 | 1.11 | fewer than 50 cells per well; well left out of scoring |
| Zfp606 | 1 | – | 1.63 | 1.45 | fewer than 50 cells per well; well left out of scoring |
| Elk3 | 1 | -1.29 | 1.43 | 1.2 | enough cells to score |
| Or8b1b | 1 | -0.92 | 1.27 | 1.2 | enough cells to score |
| Htr2c | 1 | -0.27 | 1.5 | 1.51 | enough cells to score |
| Sybu | 1 | – | 1.04 | 1.09 | fewer than 50 cells per well; well left out of scoring |
| Sybu | 2 | -0.64 | 1.4 | 1.32 | enough cells to score |
| Tbc1d16 | 1 | -0.42 | 1.45 | 1.85 | enough cells to score |
| Snx10 | 1 | -1.18 | 1.39 | 1.1 | enough cells to score |
| Slc60a2c | 1 | 1.63 | 1.85 | 2.08 | enough cells to score |
| Snn | 1 | 0.4 | 1.59 | 1.63 | enough cells to score |
| Plscr4 | 1 | 0.06 | 1.39 | 1.22 | enough cells to score |
| Tnfrsf22 | 1 | -1.91 (active) | 1.12 | 1.05 | enough cells to score |
| Tnfrsf22 | 2 | 2.02 | 1.69 | 1.82 | enough cells to score |
| Slc5a3 | 1 | -0.7 | 1.19 | 1.28 | enough cells to score |
| Slc50a1 | 1 | – | 1.28 | 1.2 | fewer than 50 cells per well; well left out of scoring |
| Dalrd3 | 1 | 1.53 | 1.31 | 1.67 | enough cells to score |
| Pabpc6 | 1 | – | 0 | 1.67 | fewer than 50 cells per well; well left out of scoring |
| Ryr3 | 1 | 0.21 | 1.49 | 1.21 | enough cells to score |
| Myom2 | 1 | 0.48 | 1.79 | 1.72 | enough cells to score |
| Foxi1 | 1 | 1.29 | 1.7 | 1.44 | enough cells to score |
| Slc27a4 | 1 | 1.92 | 1.57 | 1.48 | enough cells to score |
| Nicn1 | 1 | 0.19 | 1.72 | 1.57 | enough cells to score |
| Cd200r1 | 1 | 1.64 | 1.71 | 1.5 | enough cells to score |
| Pirb | 1 | 1.6 | 1.63 | 1.35 | enough cells to score |
| Hes1 | 1 | -0.97 | 1.32 | 1.24 | enough cells to score |
| Or2h1 | 1 | -0.51 | 1.46 | 1.11 | enough cells to score |
| Zfp609 | 1 | -0.82 | 1.26 | 1.19 | enough cells to score |
| Adamts16 | 1 | -0.56 | 1.58 | 1.49 | enough cells to score |
| Setd7 | 1 | -0.3 | 1.56 | 1.46 | enough cells to score |
| B4galt4 | 1 | -1.07 | 1.36 | 1.73 | enough cells to score |
| Retsat | 1 | – | 1.3 | 1.33 | fewer than 50 cells per well; well left out of scoring |
| Incenp | 1 | – | 1.21 | 1.2 | fewer than 50 cells per well; well left out of scoring |
| Ndufs5-ps | 1 | 0.81 | 1.46 | 1.52 | enough cells to score |
| Dyrk2 | 1 | -0.87 | 1.55 | 0 | enough cells to score |
| Slc5a5 | 1 | 0.34 | 1.61 | 1.53 | enough cells to score |
| Tgif2 | 1 | -0.62 | 1.49 | 1.38 | enough cells to score |
| Hemk2 | 1 | 0.63 | 1.44 | 1.55 | enough cells to score |
| Sf3b3 | 1 | 0.53 | 1.4 | 1.65 | enough cells to score |

Limited to “nuclear/cytoplasmic p65 ratio, rep 1” (5 entries from above):
Zfp606 = 1.63
Elk3 = 1.43
Or8b1b = 1.27
Htr2c = 1.5
Sybu #1 = 1.04
